Values from PubChem BioAssay AID1259424 (University of Nebraska Medical Center, 2018)

Screen: 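Rank knockdowns across the genome by resemblance to the KSR1 depletion profile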 (primary screen)
Cell system: human HCT116 colon cancer cells
Reagent: siRNA pool against human genes, 50 nM
Detection: 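Six signature mRNAs by branched-DNA multiplex assay, scaled to two housekeeping genes and non-targeting median, log2; matched to mean KSR1 knockdown profile by Pearson correlation and euclidean distance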
Scale: mean correlation with KSR1 profile: higher = expression change more like KSR1 knockdown; mean distance from KSR1 profile: higher = expression change less like KSR1 knockdown
This is one part, drawn at random, of about 14,000 reagents. 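Higher correlation or smaller distance means closer resemblance to KSR1 loss; control wells, including KSR1 knockdowns, recur on many plates.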 Further read-outs or replicates are left out here. Not stated in the record: the time to read-out.

{"Gene": "TMED10", "mean correlation with KSR1 profile": -0.354, "mean distance from KSR1 profile": 4.8}
{"Gene": "ASIC5", "mean correlation with KSR1 profile": -0.573, "mean distance from KSR1 profile": 1.55}
{"Gene": "ACTA2", "mean correlation with KSR1 profile": -0.269, "mean distance from KSR1 profile": 1.65}
{"Gene": "MYCNOS", "mean correlation with KSR1 profile": 0.209, "mean distance from KSR1 profile": 1.77}
{"Gene": "KPNA4", "mean correlation with KSR1 profile": -0.0264, "mean distance from KSR1 profile": 1.68}
{"Gene": "KAT14", "mean correlation with KSR1 profile": -0.102, "mean distance from KSR1 profile": 3.14}
{"Gene": "PTH", "mean correlation with KSR1 profile": 0.615, "mean distance from KSR1 profile": 1.78}
{"Gene": "FKBP5", "mean correlation with KSR1 profile": 0.645, "mean distance from KSR1 profile": 0.924}
{"Gene": "TAS2R42", "mean correlation with KSR1 profile": -0.103, "mean distance from KSR1 profile": 1.64}
{"Gene": "LILRP2", "mean correlation with KSR1 profile": 0.141, "mean distance from KSR1 profile": 2.02}
{"Gene": "PRDM8", "mean correlation with KSR1 profile": 0.118, "mean distance from KSR1 profile": 1.8}
{"Gene": "SLC16A6", "mean correlation with KSR1 profile": -0.33, "mean distance from KSR1 profile": 1.63}
{"Gene": "CILP", "mean correlation with KSR1 profile": -0.0343, "mean distance from KSR1 profile": 3.69}
{"Gene": "RPL37", "mean correlation with KSR1 profile": -0.286, "mean distance from KSR1 profile": 1.93}
{"Gene": "CRABP1", "mean correlation with KSR1 profile": -0.278, "mean distance from KSR1 profile": 2.58}
{"Gene": "DNAH9", "mean correlation with KSR1 profile": -0.449, "mean distance from KSR1 profile": 3.04}
{"Gene": "RACGAP1P1", "mean correlation with KSR1 profile": 0.146, "mean distance from KSR1 profile": 3.07}

Laid out differently: entries from further up
TAS2R42
- mean correlation with KSR1 profile: -0.103
- mean distance from KSR1 profile: 1.64

LILRP2
- mean correlation with KSR1 profile: 0.141
- mean distance from KSR1 profile: 2.02

PRDM8
- mean correlation with KSR1 profile: 0.118
- mean distance from KSR1 profile: 1.8

The list goes on.
{"Gene": "OR2B2", "mean correlation with KSR1 profile": 0.728, "mean distance from KSR1 profile": 1.19}
{"Gene": "VCP", "mean correlation with KSR1 profile": -0.159, "mean distance from KSR1 profile": 4.31}
{"Gene": "PATZ1", "mean correlation with KSR1 profile": -0.222, "mean distance from KSR1 profile": 3.02}
{"Gene": "DCLK1", "mean correlation with KSR1 profile": -0.41, "mean distance from KSR1 profile": 2.53}
{"Gene": "BLZF1", "mean correlation with KSR1 profile": -0.419, "mean distance from KSR1 profile": 2.61}
{"Gene": "TLN1", "mean correlation with KSR1 profile": 0.375, "mean distance from KSR1 profile": 2.7}
{"Gene": "CRYL1", "mean correlation with KSR1 profile": -0.502, "mean distance from KSR1 profile": 3.01}
{"Gene": "H3C12", "mean correlation with KSR1 profile": -0.181, "mean distance from KSR1 profile": 2.62}
{"Gene": "NDUFS7", "mean correlation with KSR1 profile": 0.0997, "mean distance from KSR1 profile": 4.49}
{"Gene": "GLO1", "mean correlation with KSR1 profile": -0.305, "mean distance from KSR1 profile": 2.88}
{"Gene": "CSNK1A1", "mean correlation with KSR1 profile": 0.258, "mean distance from KSR1 profile": 2.67}
